Values quoted from earlier work as cited in patent US6835722B1, “Pharmaceutical compositions and preparations for treatment of metabolic bone disease” (Yuyu Industrial Co., Ltd., priority 1999, dated 2004).

Tested on: post-menopausal women
Settings: cited from earlier work

Compound: NCCCC(O)(P(=O)(O)O)P(=O)(O)O [alendronate, 4-amino-hydroxybutylidine-1,1-bisphosphonate]
- increase of mineral density of bones of lower limbs (10 mg/day for 3 years): 7.2%
- increase of mineral density of spinal bone (10 mg/day for 3 years): 8.2%
- increase in bone density (clinical studies): 2-3%
